Results are given in words; binding and its absence hold for the method and conditions named. In cells and extracts the contact can be indirect. Binding can be weak; no strength is given.
How the values were obtained:
[1] = molecular target: Flag-tagged human YAP (human) (UniProt P46937); assay: co-IP; HEK293T transfected with Flag-YAP or empty vector for 36 h; lysate on anti-Flag M2 magnetic beads, eluted with 3X-Flag peptide; western blot for PP2Ac
[2] = molecular target: phospho-YAP (pYAP), endogenous in HUVECs (human (endogenous in HUVEC)) (UniProt P46937); assay: co-IP; endogenous proteins, HUVEC lysate (mild lysis buffer); anti-pYAP antibody overnight, protein A/G magnetic beads; cells with or without LatB for 2 h
[3] = molecular target: MST1, endogenous in HUVECs (human (endogenous in HUVEC)) (UniProt Q13043); assay: co-IP; endogenous MST1 and PP2Ac in HUVECs stimulated with 50 ng/mL VEGF for 2 h; the precipitating antibody is not told

Amino acid sequences for entries named in this document (tags omitted). A change or cut given only in a name is not applied to a line headed by its entry.
UniProt P46937: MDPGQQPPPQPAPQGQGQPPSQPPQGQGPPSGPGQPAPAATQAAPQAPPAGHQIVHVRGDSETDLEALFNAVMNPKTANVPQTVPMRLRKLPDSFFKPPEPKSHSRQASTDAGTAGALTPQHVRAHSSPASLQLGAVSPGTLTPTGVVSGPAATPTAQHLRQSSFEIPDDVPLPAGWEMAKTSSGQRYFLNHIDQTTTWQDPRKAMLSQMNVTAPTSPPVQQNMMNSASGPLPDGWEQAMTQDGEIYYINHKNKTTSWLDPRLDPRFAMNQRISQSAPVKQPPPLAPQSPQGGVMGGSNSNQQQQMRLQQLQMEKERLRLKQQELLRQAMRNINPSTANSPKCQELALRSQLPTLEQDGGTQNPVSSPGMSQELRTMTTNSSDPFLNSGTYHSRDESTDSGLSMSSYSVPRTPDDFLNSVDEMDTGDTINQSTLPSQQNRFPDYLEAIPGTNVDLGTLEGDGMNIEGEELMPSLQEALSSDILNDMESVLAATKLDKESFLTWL
UniProt Q13043: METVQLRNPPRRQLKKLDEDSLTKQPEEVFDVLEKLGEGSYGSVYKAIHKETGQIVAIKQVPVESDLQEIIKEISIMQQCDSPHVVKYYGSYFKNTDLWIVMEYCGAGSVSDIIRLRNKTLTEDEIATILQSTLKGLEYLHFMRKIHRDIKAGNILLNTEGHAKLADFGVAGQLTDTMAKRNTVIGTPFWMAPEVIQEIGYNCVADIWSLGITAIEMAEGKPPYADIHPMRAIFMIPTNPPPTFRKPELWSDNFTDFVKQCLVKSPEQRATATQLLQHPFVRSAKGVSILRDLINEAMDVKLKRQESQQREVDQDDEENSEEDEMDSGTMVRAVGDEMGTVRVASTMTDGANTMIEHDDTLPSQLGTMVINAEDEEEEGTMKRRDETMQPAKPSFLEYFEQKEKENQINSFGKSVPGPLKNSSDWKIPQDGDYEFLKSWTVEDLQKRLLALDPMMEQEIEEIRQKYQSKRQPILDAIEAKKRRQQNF
UniProt P67775: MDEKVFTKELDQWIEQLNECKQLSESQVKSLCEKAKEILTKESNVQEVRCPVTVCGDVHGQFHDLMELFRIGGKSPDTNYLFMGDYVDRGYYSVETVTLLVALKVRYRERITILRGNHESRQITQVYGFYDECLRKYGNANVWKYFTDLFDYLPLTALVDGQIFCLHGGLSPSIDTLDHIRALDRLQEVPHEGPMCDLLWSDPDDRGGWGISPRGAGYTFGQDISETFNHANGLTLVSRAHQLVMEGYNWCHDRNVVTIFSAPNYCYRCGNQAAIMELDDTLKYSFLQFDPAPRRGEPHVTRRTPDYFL

| Substance | binding [1] | binding [2] | binding [3] |
| --- | --- | --- | --- |
| PP2A catalytic C subunit (PP2Ac), endogenous in HEK293T (from UniProt P67775) (enzyme) | binds | – | – |
| PP2A catalytic C subunit (PP2Ac), endogenous in HUVECs (from UniProt P67775) (enzyme) | – | binds | binds |

Reference: paper PMC8158299
